Results: PMC5059743, “Crystal structures of the human elongation factor eEFSec suggest a non-canonical mechanism for selenocysteine incorporation” (Nature Communications, 2016)
These are yes or no findings as the source states them, for the method shown. Each block holds one binder with its values, some of them ahead of it.

How the values were obtained:
[1] = target: human eEFSec (selenocysteine-specific translation elongation factor), wild type (human) (UniProt P57772); assay: crystal structure; asymmetric unit of eEFSec:GDPCP and eEFSec:GDPNP (head-to-head dimer) and of eEFSec:GDP (head-to-tail dimer); sitting-drop vapor diffusion at +12 °C; both purified
[2] = target: human eEFSec H96A variant (human) (UniProt P57772); assay: SEC; variants purified on Ni2+-affinity and size-exclusion columns; stored in 50 mM HEPES pH 7.5, 250 mM NaCl, 0.5 mM TCEP, 5 mM MgCl2; both purified
[3] = target: human eEFSec D92A variant (human) (UniProt P57772); assay: as above
[4] = target: human eEFSec T48A variant (human) (UniProt P57772); assay: as above

- binding [1]: no binding
B1: human eEFSec (selenocysteine-specific translation elongation factor), wild type (protein, UniProt P57772 1-596)
chain: MAGRRVNVNVGVLGHIDSGKTALARALSTTASTAAFDKQPQSRERGITLDLGFSCFSVPLPARLRSSLPEFQAAPEAEPEPGEPLLQVTLVDCPGHASLIRTIIGGAQIIDLMMLVIDVTKGMQTQSAECLVIGQIACQKLVVVLNKIDLLPEGKRQAAIDKMTKKMQKTLENTKFRGAPIIPVAAKPGGPEAPETEAPQGIPELIELLTSQISIPTRDPSGPFLMSVDHCFSIKGQGTVMTGTILSGSISLGDSVEIPALKVVKKVKSMQMFHMPITSAMQGDRLGICVTQFDPKLLERGLVCAPESLHTVHAALISVEKIPYFRGPLQTKAKFHITVGHETVMGRLMFFSPAPDNFDQEPILDSFNFSQEYLFQEQYLSKDLTPAVTDNDEADKKAGQATEGHCPRQQWALVEFEKPVTCPRLCLVIGSRLDADIHTNTCRLAFHGILLHGLEDRNYADSFLPRLKVYKLKHKHGLVERAMDDYSVIGRSLFKKETNIQLFVGLKVHLSTGELGIIDSAFGQSGKFKIHIPGGLSPESKKILTPALKKRARAGRGEATRQEESAERSEPSQHVVLSLTFKRYVFDTHKRMVQSP

- binding [2]: no binding
B2: human eEFSec H96A variant (protein, UniProt P57772 1-596)
chain: MAGRRVNVNVGVLGHIDSGKTALARALSTTASTAAFDKQPQSRERGITLDLGFSCFSVPLPARLRSSLPEFQAAPEAEPEPGEPLLQVTLVDCPGAASLIRTIIGGAQIIDLMMLVIDVTKGMQTQSAECLVIGQIACQKLVVVLNKIDLLPEGKRQAAIDKMTKKMQKTLENTKFRGAPIIPVAAKPGGPEAPETEAPQGIPELIELLTSQISIPTRDPSGPFLMSVDHCFSIKGQGTVMTGTILSGSISLGDSVEIPALKVVKKVKSMQMFHMPITSAMQGDRLGICVTQFDPKLLERGLVCAPESLHTVHAALISVEKIPYFRGPLQTKAKFHITVGHETVMGRLMFFSPAPDNFDQEPILDSFNFSQEYLFQEQYLSKDLTPAVTDNDEADKKAGQATEGHCPRQQWALVEFEKPVTCPRLCLVIGSRLDADIHTNTCRLAFHGILLHGLEDRNYADSFLPRLKVYKLKHKHGLVERAMDDYSVIGRSLFKKETNIQLFVGLKVHLSTGELGIIDSAFGQSGKFKIHIPGGLSPESKKILTPALKKRARAGRGEATRQEESAERSEPSQHVVLSLTFKRYVFDTHKRMVQSP

Second part, the binder before the results:

B3: human eEFSec D92A variant (protein, UniProt P57772 1-596)
chain: MAGRRVNVNVGVLGHIDSGKTALARALSTTASTAAFDKQPQSRERGITLDLGFSCFSVPLPARLRSSLPEFQAAPEAEPEPGEPLLQVTLVACPGHASLIRTIIGGAQIIDLMMLVIDVTKGMQTQSAECLVIGQIACQKLVVVLNKIDLLPEGKRQAAIDKMTKKMQKTLENTKFRGAPIIPVAAKPGGPEAPETEAPQGIPELIELLTSQISIPTRDPSGPFLMSVDHCFSIKGQGTVMTGTILSGSISLGDSVEIPALKVVKKVKSMQMFHMPITSAMQGDRLGICVTQFDPKLLERGLVCAPESLHTVHAALISVEKIPYFRGPLQTKAKFHITVGHETVMGRLMFFSPAPDNFDQEPILDSFNFSQEYLFQEQYLSKDLTPAVTDNDEADKKAGQATEGHCPRQQWALVEFEKPVTCPRLCLVIGSRLDADIHTNTCRLAFHGILLHGLEDRNYADSFLPRLKVYKLKHKHGLVERAMDDYSVIGRSLFKKETNIQLFVGLKVHLSTGELGIIDSAFGQSGKFKIHIPGGLSPESKKILTPALKKRARAGRGEATRQEESAERSEPSQHVVLSLTFKRYVFDTHKRMVQSP
- binding [3]: no binding

B4: human eEFSec T48A variant (protein, UniProt P57772 1-596)
chain: MAGRRVNVNVGVLGHIDSGKTALARALSTTASTAAFDKQPQSRERGIALDLGFSCFSVPLPARLRSSLPEFQAAPEAEPEPGEPLLQVTLVDCPGHASLIRTIIGGAQIIDLMMLVIDVTKGMQTQSAECLVIGQIACQKLVVVLNKIDLLPEGKRQAAIDKMTKKMQKTLENTKFRGAPIIPVAAKPGGPEAPETEAPQGIPELIELLTSQISIPTRDPSGPFLMSVDHCFSIKGQGTVMTGTILSGSISLGDSVEIPALKVVKKVKSMQMFHMPITSAMQGDRLGICVTQFDPKLLERGLVCAPESLHTVHAALISVEKIPYFRGPLQTKAKFHITVGHETVMGRLMFFSPAPDNFDQEPILDSFNFSQEYLFQEQYLSKDLTPAVTDNDEADKKAGQATEGHCPRQQWALVEFEKPVTCPRLCLVIGSRLDADIHTNTCRLAFHGILLHGLEDRNYADSFLPRLKVYKLKHKHGLVERAMDDYSVIGRSLFKKETNIQLFVGLKVHLSTGELGIIDSAFGQSGKFKIHIPGGLSPESKKILTPALKKRARAGRGEATRQEESAERSEPSQHVVLSLTFKRYVFDTHKRMVQSP
- binding [4]: no binding
